# Measurements as given in PubChem BioAssay AID1347423 (Functional Genomics Laboratory (NCATS/FGL), 2020).
# Among all 52,000 sequences or so, about 210 (0.4%) were called active.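 How the source made its calls: active means gene whose silencing raises cell survival under the drug, median off-target-corrected z-score across its silencing RNAs 2 or more; inactive means the rest.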 Some of the results follow.
# Experiment: Resistance to Poly (ADP-Ribose) Polymerase inhibitor: Gene Identification via Genome-wide siRNA Screen
# Conditions: mouse BRCA2 R2336H ES cells, olaparib, CellTiter-Glo viability; stronger effect = higher value
# Outline: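 Mouse BRCA2 R2336H ES cells were reverse-transfected with siRNA (20 nM final), treated at 48 h with 500 nM olaparib, and read by CellTiter-Glo after 72 h. Scores: MAD-based z per siRNA, median per gene, seed off-target correction.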
row,Sequence,z-score
1,GCACAAUUUUAUAACUCGGTT against D430025H09Rik,inactive: -1.13
2,GCCUUACGUGUCAGACUAUTT against Theg,inactive: -2.57
3,GGUAGAGUACCCUGUCAUGTT against Mgst3,inactive: -1.5
4,GGGUCAGUCAGGAAUGUUGTT against Mad2l1,inactive: 0.282
5,CCCUAUGACAAGAAAAAGCTT against Rpl13a,inactive: -3.5
6,GGUGAAAAACUAUAGCAACTT against Mtx2,inactive: -0.024
7,GGGAUGCCGAAGACAAUAGTT against V1rh21,inactive: 0.281
8,GGCUAAAAAAGACUUGGAATT against Pms1,inactive: 0.205
9,GGAUGUUAAAGCCAUAUACTT against Msh6,inactive: 0.0717
10,GGCACAAACUAGAUGCAGATT against MGC54896,inactive: -0.473
11,GCCGUAACUGCUCUGAAUGTT against Rnf34,inactive: -0.0868
12,AUCGAAACCCUGGAGUCGUTT against Nrp,inactive: -0.136
13,GGUUUAACUGUAGCAUAAGTT against E430028B21Rik,inactive: 0.156
14,GGGAUAACUCACACCACGGTT against Bscl2,inactive: 2.49
15,GGAUGGCUUUCAUAUCCGATT against Rpl10,inactive: -2.98
16,GGAUUUUUCUUUUGAGCGATT against Figf,inactive: -0.866
17,GGCACACCUUUUGUUAGUGTT against Ywhag,inactive: -1.27
18,AAUACCUAGACUGACAUGUTT against Trp53rk,inactive: 0.282
19,GGGAUUGUUCGAGUUGUCUTT against Phtf2,inactive: 0.603
20,GGCAAAAUUGGCAAAGAAUTT against Tollip,inactive: -0.137
21,GCGAGGAGAGUGUGUUUUCTT against Bop1,inactive: -1.81
22,GGUGUUAUCAGAAUUCAGATT against Cars,inactive: -1.21
23,GGGCUCGUCAUGAUAUUUGTT against Rnf41,inactive: -0.0776

row,Sequence,z-score
1,GGAACCUUCUUCCUGAUGATT against Oprm1,inactive: -0.575
2,GGAACACAGUUCUCUGAGATT against Ighmbp2,inactive: -0.736
3,GGGACUGUGGAUGGAAUGUTT against Cldn14,inactive: -1.03
4,GGGAGCUUCCAUGUUGACATT against Uqcr,inactive: -1.78
5,GGGUUAUGCUGUCUUGGUGTT against B230114J08Rik,inactive: -0.624
6,GGCUGCUCGAAUCAGUCAUTT against Slc27a3,inactive: 0.0555
7,GGGCAGAACGCAUCUUGCATT against Gpt1,inactive: 2.43
8,GCUAUUGAUGAACCUAACATT against Trpc5,inactive: 0.0413
9,GGGCUCUUGUGUUAAGGCATT against Krt1-c29,inactive: 1.06
10,GAUUCCACGCCAAUUCAUCTT against Ccl3,inactive: -1.53
11,GCUAUGUGUGGAACACCAUTT against C330017I15Rik,inactive: 1.24
12,GGAAAUCUCACGUAAUUAATT against Anxa9,inactive: -1.33
13,GGCGAAGGAAGAGUGUGAATT against Sox8,inactive: -1.58
14,CGCUUAAAGACCUCAUCUCTT against Ap1b1,inactive: 0.882
15,CCAAGACCGGUUAAAAGAGTT against Myo1e,inactive: -0.337
16,GGGAGUCCUGAAGGACUACTT against Lgmn,inactive: -0.124
17,GGCCUUCUAUUUUGUCAAUTT against Limd1,inactive: 2.49
18,GGAAGAAUGGAGCAGAGCUTT against Punc,inactive: 1.67
19,GGGAAUGGCGCAGACAAUGTT against Mllt10,inactive: -1.51
20,GGUUGAACGGACAGAAAGGTT against Cpne3,inactive: -1.16
21,CCUUGAUCGUGGGACCUUUTT against Slc16a14,inactive: 1.93
22,CCAAGUAUAAGAUCGUGACTT against Card4,inactive: 0.471
23,GCAAAUUUACCUCGGUUUUTT against Olfr46,inactive: -0.589

# Single entries from above.
# Entry for GAUUCCACGCCAAUUCAUCTT against Ccl3 under z-score: inactive: -1.53
# Entry for GGAACACAGUUCUCUGAGATT against Ighmbp2 under z-score: inactive: -0.736

# Next part:

row,Sequence,z-score
1,GGAAAUUACGACAUACAAATT against Rp1h,inactive: 0.887
2,GUCUGCAUCACCUUCACCATT against Lhb,inactive: -0.561
3,CCUUAUUUAGCUAAAGGAGTT against Rasl2-9,inactive: 0.458
4,GGACUACGUACAGUCCAUGTT against Eef1b2,inactive: 0.197
5,CCACAGCCAUUCGCACAUATT against Sec8l1,inactive: 0.233
6,CCAAAUAUGUACUUCAUGGTT against Adipor1,inactive: 0.946
7,GUAAGGGCGGUUCUAAGAGTT against Ggnbp1,inactive: -1.15
8,GGGUGAGAAUCAGCUAUACTT against 0610011B16Rik,inactive: -1.5
9,CCAAUUGGGCCACACGUAATT against Tial1,inactive: -0.631
10,GGCAUUAAUAGACCAGUUATT against Pcmt1,inactive: -1.72
11,GGUUGAUGAUGUUGUGAAATT against Mrps15,inactive: -0.197
12,GCGAAAGAGAGAGUGACUUTT against Olfr812,inactive: -1.77
13,GGAGAAUCUUAGAGAUUAUTT against Pramel1,inactive: -1.22
14,GGGCAUCAUCUAUAAAAAGTT against Avil,inactive: 0.214
15,GGCAAAGAGGCCAAAGCCATT against Zfp281,inactive: -1.21
16,GGACAGGAAAGUCAAGUACTT against Txnrd2,inactive: -1.87
17,GGUCUUUUGAGCCAAUGGUTT against 4930470P17Rik,inactive: -0.261
18,GGUGUCAUUCCAUAGUUCUTT against Ap4m1,inactive: 1.1
19,GCAAAAAGGAGCGGUCCACTT against Plce1,inactive: 0.642
20,GGUGUUAUCUGCAUCAUCATT against Cyp4f15,inactive: 0.255
21,GGAUUCCACAAUUUUUGUATT against Ncoa6,inactive: 1.51
22,CCUUAGGAAUUCACAAUCUTT against Mcpt8,inactive: 0.0805
